# Test results published in the supplement of paper PMC7666118.
# Sequences of proteins named here, by UniProt entry; tags and fusion partners are left off. A change or cut given only in a name is not applied to a line headed by its entry.
# UniProt Q8N680: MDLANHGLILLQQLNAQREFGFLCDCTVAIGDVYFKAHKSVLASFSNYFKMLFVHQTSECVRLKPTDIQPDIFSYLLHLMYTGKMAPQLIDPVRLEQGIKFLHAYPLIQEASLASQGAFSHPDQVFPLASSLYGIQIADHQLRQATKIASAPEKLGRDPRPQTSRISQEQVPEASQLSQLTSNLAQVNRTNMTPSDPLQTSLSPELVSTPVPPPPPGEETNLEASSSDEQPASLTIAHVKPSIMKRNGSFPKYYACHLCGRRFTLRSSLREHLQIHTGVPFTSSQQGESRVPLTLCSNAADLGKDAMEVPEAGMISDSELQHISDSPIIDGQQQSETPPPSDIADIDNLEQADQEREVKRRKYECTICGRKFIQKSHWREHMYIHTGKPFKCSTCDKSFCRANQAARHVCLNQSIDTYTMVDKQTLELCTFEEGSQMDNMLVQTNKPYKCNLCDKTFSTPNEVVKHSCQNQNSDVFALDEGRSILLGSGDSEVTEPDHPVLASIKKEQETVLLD
# UniProt Q9H582: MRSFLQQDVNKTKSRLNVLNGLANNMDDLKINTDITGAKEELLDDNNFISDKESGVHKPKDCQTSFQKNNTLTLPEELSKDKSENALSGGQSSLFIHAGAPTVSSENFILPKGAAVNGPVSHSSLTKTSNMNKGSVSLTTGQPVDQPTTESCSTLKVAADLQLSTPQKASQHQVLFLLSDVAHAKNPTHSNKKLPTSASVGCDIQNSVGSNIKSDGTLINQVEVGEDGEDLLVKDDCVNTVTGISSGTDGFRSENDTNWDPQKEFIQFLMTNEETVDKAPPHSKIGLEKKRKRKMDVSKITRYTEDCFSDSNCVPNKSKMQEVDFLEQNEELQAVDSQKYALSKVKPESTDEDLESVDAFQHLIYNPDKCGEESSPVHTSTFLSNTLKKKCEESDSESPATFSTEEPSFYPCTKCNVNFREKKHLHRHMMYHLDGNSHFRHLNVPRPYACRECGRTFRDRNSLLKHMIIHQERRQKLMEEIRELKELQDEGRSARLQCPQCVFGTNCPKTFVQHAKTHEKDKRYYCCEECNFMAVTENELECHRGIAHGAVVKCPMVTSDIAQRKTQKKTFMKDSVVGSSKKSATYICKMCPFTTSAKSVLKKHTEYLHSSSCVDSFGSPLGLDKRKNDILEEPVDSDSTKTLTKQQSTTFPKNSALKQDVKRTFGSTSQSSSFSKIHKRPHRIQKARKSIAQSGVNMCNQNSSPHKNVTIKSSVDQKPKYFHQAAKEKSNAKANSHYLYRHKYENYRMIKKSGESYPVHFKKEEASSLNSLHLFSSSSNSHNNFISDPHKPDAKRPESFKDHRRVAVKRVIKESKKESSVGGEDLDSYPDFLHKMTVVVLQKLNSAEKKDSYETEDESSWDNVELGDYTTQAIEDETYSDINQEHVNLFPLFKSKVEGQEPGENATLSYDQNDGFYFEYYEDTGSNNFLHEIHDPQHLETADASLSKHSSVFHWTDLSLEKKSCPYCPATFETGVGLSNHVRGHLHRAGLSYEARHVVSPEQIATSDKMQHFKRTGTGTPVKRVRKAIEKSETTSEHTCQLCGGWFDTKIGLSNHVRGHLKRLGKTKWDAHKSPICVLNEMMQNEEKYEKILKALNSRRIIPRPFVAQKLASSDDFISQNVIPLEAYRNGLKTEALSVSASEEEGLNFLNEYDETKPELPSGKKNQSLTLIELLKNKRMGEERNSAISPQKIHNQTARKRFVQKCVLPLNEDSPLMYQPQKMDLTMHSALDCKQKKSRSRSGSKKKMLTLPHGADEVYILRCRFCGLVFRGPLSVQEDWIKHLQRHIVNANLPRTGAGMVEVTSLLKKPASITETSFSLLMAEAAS
# UniProt Q969M3: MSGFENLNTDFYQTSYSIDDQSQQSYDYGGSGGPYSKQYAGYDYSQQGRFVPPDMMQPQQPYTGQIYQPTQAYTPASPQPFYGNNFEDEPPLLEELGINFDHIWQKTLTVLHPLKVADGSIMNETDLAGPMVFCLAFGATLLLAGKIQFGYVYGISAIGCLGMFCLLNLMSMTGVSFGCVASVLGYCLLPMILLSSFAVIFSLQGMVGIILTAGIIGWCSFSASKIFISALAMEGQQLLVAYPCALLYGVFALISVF
# UniProt Q96ME7: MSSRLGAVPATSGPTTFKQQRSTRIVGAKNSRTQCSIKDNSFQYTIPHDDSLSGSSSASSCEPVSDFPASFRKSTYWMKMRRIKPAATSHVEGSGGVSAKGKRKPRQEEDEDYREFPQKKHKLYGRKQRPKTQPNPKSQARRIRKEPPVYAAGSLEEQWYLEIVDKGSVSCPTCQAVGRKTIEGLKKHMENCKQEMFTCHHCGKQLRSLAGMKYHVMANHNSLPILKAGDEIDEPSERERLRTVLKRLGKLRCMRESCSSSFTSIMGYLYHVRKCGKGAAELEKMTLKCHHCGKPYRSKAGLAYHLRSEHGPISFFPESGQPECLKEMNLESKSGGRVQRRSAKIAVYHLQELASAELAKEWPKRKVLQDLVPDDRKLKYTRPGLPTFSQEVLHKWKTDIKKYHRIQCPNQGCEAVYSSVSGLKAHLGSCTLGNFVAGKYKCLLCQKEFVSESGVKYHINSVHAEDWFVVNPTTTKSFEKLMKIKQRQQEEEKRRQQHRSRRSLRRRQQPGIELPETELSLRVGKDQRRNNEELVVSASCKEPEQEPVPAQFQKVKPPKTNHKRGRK
# UniProt Q6PJI9: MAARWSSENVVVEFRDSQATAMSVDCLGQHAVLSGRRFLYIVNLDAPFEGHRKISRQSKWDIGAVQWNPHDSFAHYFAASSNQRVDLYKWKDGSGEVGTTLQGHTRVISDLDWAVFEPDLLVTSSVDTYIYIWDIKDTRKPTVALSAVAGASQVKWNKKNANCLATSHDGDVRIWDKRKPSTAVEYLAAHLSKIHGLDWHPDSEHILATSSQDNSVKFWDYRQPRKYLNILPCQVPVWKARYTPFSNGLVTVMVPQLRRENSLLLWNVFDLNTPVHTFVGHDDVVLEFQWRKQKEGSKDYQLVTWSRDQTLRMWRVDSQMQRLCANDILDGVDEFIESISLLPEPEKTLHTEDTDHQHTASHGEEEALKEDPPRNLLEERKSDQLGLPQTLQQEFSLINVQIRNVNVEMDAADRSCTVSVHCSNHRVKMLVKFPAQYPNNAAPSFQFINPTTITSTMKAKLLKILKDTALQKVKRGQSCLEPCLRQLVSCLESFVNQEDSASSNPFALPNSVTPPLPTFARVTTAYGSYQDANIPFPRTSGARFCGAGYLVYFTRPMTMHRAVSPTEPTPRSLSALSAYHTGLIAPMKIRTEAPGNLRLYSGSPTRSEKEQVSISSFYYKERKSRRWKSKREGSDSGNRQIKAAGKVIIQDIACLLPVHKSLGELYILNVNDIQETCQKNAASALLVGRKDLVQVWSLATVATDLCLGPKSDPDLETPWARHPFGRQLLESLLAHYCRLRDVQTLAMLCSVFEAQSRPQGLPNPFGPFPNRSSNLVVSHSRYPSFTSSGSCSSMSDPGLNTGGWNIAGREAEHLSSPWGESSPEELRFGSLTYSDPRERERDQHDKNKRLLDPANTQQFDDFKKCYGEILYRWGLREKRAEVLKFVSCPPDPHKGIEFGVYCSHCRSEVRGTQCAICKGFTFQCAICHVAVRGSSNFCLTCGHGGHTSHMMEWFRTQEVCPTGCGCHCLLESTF
# UniProt Q5VV52: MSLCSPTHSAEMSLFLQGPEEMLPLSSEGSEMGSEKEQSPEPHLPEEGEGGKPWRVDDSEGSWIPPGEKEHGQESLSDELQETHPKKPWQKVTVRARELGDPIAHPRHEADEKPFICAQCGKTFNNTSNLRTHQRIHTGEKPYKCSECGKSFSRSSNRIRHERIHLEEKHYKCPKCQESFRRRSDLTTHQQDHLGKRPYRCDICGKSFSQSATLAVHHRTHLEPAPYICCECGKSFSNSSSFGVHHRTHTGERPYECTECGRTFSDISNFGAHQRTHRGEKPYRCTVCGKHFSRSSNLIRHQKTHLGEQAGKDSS
# UniProt Q14191, whole entry: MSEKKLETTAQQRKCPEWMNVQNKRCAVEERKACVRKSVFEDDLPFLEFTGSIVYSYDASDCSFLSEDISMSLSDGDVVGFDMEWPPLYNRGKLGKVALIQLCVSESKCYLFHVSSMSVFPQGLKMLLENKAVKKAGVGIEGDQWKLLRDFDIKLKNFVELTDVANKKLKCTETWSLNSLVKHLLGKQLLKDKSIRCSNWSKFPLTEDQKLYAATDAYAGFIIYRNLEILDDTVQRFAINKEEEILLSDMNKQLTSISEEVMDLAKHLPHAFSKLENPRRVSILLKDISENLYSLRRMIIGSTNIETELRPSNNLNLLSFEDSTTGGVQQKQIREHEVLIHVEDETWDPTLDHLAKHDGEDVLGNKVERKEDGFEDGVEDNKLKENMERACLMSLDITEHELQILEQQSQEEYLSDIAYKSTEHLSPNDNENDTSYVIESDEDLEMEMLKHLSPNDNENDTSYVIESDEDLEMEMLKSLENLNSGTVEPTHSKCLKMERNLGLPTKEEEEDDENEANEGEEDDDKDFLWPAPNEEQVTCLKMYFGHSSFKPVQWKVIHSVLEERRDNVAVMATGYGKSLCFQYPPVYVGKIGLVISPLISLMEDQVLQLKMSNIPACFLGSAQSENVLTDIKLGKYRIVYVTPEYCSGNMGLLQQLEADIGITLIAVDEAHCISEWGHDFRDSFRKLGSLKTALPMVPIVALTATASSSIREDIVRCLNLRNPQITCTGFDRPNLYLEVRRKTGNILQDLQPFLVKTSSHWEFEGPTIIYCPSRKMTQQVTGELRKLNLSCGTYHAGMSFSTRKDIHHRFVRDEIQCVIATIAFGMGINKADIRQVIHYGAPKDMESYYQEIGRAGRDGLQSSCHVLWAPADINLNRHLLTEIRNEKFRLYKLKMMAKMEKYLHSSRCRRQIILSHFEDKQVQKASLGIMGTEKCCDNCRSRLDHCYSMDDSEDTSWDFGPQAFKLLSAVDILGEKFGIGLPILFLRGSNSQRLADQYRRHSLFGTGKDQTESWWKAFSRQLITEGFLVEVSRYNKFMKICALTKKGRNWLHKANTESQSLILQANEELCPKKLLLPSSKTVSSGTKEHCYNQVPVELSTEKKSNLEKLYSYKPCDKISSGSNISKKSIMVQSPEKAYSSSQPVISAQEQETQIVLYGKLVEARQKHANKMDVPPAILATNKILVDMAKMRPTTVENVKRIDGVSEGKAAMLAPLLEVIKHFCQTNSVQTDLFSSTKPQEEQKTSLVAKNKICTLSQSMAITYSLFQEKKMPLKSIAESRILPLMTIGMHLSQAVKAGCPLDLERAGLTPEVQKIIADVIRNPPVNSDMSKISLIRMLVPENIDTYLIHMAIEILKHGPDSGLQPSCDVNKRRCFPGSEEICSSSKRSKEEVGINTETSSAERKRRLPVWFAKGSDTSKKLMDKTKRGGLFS
# UniProt O95229: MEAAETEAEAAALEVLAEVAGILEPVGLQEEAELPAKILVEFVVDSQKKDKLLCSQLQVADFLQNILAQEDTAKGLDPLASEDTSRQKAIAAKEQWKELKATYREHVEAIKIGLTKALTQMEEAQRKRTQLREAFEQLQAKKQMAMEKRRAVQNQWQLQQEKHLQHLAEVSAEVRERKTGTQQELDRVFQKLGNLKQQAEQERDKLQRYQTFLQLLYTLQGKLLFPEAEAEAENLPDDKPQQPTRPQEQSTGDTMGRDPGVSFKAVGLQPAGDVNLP
# UniProt O00488: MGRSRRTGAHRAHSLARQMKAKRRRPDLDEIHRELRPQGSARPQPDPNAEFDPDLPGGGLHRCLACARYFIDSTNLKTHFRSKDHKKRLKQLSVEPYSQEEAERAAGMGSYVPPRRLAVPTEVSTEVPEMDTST
# UniProt Q9C0D3: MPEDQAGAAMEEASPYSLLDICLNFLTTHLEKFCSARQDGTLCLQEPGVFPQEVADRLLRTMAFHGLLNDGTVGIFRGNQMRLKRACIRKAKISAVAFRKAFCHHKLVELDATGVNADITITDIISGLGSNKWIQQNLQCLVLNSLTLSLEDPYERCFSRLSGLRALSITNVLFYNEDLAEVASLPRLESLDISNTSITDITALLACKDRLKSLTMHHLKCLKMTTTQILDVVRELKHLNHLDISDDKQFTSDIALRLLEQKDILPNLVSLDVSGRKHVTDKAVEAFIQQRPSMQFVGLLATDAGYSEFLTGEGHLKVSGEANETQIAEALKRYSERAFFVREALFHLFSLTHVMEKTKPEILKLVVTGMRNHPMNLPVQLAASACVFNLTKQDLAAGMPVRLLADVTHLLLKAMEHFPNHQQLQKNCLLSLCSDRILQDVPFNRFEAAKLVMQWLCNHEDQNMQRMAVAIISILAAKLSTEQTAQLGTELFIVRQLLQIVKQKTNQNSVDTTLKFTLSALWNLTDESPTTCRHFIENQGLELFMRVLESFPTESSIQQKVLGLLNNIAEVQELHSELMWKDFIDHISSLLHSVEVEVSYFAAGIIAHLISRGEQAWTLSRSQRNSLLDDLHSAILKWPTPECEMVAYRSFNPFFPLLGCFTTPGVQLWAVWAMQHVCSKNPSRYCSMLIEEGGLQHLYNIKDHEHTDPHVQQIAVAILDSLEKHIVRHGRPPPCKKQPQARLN
# The list shows a part of the results.
# Compound: COc1ccc(Cn2ccc3cc(C)c(C(=O)NO)cc32)cc1
# Assay: dose-dependent thermal stabilisation call (2D-TPP, DLPTP, 10% FDR) (binary (1 = stabilised)); higher = stabilised by the compound
# Settings: system: HL-60 intact cells; concentration range 0.04-10 µM
# Protocol: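 2D thermal proteome profiling in intact HL-60 cells treated with BRD-3811 (0, 0.04, 0.29, 2, 10 uM) for 90 min at 37 C, then heated 3 min at one of 12 temperatures (42-63.9 C). Soluble protein was quantified by TMT10 MS. The value is the DLPTP call of the paper: dose-dependent thermal stabilisation over all temperatures at 10% FDR (F-test of a dose-response against a flat model); one experiment, one call per tested protein.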
row,Target,dose-dependent thermal stabilisation call
1,ZBTB2 (UniProt Q8N680),inactive: 0
2,WDR6 (UniProt Q9NNW5),inactive: 0
3,ZNF644 (UniProt Q9H582),inactive: 0
4,XPNPEP1 (UniProt Q9NQW7),inactive: 0
5,XPC (UniProt Q01831),inactive: 0
6,YIPF5 (UniProt Q969M3),inactive: 0
7,YRDC (UniProt Q86U90),inactive: 0
8,ZGPAT (UniProt Q8N5A5),inactive: 0
9,WDR18 (UniProt Q9BV38),inactive: 0
10,ZNF384 (UniProt Q8TF68),inactive: 0
11,XYLT1 (UniProt Q86Y38),inactive: 0
12,ZC3H7A (UniProt Q8IWR0),inactive: 0
13,YIF1A (UniProt O95070),inactive: 0
14,XAB2 (UniProt Q9HCS7),inactive: 0
15,ZNF574 (UniProt Q6ZN55),inactive: 0
16,WDR40A (UniProt Q5T6F0),inactive: 0
17,YTHDF2 (UniProt Q9Y5A9),inactive: 0
18,YWHAG (UniProt P61981),inactive: 0

row,Target,dose-dependent thermal stabilisation call
1,ZNF512 (UniProt Q96ME7),inactive: 0
2,WDR82 (UniProt Q6UXN9),inactive: 0
3,ZC3H15 (UniProt Q8WU90),inactive: 0
4,ZC3H10 (UniProt Q96K80),inactive: 0
5,XRCC2 (UniProt O43543),inactive: 0
6,ZBTB43 (UniProt O43298),inactive: 0
7,ZC3H8 (UniProt Q8N5P1),inactive: 0
8,WDR59 (UniProt Q6PJI9),inactive: 0
9,ZNF691 (UniProt Q5VV52),inactive: 0
10,WRN (UniProt Q14191),inactive: 0
11,ZWINT (UniProt O95229),inactive: 0
12,ZNF407 (UniProt Q9C0G0),inactive: 0
13,ZNF593 (UniProt O00488),inactive: 0
14,ZYG11B (UniProt Q9C0D3),inactive: 0
15,WDTC1 (UniProt Q8N5D0),inactive: 0
16,ZNF318 (UniProt Q5VUA4),inactive: 0
17,ZNFX1 (UniProt Q9P2E3),inactive: 0
18,ZFAND6 (UniProt Q6FIF0),inactive: 0

# Another view of part of the listing above:
row | Target | dose-dependent thermal stabilisation call
11 | ZWINT (UniProt O95229) | inactive: 0
18 | ZFAND6 (UniProt Q6FIF0) | inactive: 0
